The text below walks through data of publication PMC8406326.

By UniProt entry, the sequences of proteins in these tests, tags left out. Residues count along the entry.
UniProt P63158: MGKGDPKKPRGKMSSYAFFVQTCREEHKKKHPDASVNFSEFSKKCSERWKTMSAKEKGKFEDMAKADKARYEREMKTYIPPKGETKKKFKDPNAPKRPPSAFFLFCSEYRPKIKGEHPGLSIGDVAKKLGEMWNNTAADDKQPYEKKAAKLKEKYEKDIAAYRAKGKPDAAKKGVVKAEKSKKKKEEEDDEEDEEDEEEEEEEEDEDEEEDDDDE
UniProt P48036: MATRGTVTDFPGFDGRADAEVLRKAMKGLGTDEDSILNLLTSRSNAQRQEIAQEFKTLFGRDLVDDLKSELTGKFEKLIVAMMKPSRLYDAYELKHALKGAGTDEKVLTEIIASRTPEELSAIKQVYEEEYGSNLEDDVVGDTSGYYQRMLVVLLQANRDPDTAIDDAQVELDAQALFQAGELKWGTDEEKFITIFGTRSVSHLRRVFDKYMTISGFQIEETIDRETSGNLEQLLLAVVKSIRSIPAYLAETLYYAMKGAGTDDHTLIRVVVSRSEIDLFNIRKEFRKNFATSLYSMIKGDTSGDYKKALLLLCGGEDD
UniProt P62259: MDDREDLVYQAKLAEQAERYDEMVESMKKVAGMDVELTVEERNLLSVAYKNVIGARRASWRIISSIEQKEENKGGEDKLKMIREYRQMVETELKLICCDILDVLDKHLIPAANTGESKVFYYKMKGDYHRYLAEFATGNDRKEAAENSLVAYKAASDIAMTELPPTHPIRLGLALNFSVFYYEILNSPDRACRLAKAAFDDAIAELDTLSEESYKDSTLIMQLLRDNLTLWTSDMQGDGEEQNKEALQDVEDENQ
UniProt P31996, residues 21-326: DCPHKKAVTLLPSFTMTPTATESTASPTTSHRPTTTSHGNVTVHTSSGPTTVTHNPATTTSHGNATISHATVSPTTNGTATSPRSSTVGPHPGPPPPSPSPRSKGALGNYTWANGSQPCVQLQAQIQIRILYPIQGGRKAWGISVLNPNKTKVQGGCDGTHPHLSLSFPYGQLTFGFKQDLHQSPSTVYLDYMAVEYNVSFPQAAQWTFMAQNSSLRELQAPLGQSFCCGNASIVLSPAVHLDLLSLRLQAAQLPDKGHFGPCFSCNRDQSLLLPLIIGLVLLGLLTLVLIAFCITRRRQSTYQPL
UniProt P08003, residues 21-638: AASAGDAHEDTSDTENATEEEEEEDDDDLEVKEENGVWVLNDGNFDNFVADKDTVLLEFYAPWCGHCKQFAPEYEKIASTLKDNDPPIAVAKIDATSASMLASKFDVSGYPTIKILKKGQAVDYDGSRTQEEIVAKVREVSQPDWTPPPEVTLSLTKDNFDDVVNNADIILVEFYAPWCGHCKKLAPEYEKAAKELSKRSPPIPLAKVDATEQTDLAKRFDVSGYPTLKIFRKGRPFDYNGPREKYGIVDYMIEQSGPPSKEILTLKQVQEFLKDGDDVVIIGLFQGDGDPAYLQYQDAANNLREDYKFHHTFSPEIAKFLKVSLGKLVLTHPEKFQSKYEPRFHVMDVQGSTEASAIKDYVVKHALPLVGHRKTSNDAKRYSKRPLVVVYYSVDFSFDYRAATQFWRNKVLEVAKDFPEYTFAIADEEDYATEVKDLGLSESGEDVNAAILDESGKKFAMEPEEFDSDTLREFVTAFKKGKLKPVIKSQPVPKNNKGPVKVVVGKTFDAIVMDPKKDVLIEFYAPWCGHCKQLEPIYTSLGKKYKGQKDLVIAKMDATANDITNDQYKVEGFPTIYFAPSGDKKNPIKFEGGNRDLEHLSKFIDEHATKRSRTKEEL
UniProt P07356: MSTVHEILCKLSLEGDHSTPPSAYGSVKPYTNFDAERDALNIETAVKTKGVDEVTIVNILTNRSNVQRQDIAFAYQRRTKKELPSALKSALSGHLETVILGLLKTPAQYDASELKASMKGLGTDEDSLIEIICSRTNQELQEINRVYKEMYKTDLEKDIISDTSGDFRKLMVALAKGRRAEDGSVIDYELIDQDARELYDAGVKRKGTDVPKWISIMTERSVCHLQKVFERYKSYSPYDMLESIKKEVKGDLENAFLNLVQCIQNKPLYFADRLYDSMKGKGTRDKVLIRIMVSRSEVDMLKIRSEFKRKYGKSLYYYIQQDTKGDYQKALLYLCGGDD
UniProt P13020, residues 26-780: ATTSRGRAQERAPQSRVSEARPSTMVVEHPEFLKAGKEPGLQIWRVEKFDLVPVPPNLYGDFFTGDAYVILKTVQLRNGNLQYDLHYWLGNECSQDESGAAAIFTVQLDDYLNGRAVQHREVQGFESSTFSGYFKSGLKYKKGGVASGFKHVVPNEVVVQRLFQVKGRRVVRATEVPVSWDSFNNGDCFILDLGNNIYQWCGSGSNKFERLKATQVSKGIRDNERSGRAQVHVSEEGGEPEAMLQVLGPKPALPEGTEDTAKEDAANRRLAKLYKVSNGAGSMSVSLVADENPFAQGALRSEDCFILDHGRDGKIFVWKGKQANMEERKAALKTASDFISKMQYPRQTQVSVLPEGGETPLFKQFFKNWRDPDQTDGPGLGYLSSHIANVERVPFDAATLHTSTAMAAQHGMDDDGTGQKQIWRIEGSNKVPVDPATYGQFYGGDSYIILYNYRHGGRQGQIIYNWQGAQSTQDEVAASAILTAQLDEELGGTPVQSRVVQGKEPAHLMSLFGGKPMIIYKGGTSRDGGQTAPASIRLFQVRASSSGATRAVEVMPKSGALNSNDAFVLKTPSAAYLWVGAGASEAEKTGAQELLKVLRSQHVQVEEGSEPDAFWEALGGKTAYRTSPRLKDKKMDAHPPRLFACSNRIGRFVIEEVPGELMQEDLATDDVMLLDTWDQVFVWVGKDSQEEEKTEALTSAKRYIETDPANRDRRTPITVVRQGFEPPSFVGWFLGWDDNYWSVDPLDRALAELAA
UniProt P08113, residues 22-802: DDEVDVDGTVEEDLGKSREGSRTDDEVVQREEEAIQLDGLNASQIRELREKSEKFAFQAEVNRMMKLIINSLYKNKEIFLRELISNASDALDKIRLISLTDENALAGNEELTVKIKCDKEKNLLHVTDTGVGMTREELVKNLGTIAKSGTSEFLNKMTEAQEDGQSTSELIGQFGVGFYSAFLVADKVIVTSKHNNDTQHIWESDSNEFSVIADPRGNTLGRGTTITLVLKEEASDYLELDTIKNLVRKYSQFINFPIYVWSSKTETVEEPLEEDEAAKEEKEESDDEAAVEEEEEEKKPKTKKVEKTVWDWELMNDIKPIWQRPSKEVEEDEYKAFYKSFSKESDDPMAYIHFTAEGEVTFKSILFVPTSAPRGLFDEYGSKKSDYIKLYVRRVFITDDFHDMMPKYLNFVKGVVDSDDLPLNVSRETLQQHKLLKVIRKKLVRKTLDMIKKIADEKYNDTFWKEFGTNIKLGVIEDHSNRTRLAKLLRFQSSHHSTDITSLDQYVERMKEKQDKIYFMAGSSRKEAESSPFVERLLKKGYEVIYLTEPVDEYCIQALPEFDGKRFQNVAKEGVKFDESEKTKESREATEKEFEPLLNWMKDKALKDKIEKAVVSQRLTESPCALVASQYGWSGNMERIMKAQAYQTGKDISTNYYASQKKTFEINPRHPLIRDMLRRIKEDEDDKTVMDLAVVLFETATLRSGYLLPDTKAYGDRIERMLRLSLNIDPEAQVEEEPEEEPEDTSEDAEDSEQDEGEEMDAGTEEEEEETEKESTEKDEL
UniProt P09103, residues 20-509: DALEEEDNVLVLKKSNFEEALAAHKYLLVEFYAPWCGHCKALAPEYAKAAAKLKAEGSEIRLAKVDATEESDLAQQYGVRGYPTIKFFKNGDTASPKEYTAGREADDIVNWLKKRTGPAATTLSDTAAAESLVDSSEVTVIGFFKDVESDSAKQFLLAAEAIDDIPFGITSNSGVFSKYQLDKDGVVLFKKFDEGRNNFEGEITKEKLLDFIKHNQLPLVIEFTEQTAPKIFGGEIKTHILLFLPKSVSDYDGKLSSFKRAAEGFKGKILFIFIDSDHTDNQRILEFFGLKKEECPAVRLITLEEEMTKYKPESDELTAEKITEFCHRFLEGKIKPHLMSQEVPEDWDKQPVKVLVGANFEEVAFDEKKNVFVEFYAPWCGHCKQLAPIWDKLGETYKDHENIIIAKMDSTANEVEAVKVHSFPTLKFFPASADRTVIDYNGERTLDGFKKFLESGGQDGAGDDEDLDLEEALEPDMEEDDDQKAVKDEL
UniProt Q9WUU7, residues 64-306: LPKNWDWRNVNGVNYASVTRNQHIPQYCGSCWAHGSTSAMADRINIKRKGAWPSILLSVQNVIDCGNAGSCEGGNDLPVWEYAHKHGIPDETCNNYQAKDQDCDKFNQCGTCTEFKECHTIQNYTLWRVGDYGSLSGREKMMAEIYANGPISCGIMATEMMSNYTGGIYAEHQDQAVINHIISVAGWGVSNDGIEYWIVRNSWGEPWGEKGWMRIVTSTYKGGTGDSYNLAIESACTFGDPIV
UniProt P60766: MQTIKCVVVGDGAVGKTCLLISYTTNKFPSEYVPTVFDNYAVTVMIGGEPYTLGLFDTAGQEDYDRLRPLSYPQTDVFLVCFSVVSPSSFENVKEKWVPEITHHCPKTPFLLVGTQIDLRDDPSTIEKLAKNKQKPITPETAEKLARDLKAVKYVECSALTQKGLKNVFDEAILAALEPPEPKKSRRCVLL
UniProt O08992: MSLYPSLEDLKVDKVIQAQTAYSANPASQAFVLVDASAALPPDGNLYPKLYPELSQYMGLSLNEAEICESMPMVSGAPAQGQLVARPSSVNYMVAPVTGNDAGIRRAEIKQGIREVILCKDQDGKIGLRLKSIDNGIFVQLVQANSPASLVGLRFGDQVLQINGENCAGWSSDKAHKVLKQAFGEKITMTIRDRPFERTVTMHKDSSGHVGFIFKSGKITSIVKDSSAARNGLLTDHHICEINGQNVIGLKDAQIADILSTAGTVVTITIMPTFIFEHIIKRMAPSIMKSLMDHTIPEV
UniProt Q9D8Y0: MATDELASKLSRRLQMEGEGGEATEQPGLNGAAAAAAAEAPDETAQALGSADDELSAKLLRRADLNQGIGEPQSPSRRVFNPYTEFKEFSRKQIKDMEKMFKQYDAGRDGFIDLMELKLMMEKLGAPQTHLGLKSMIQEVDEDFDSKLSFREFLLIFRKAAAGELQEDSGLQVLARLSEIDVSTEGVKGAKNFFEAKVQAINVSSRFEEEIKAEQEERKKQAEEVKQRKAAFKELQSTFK
UniProt Q62159: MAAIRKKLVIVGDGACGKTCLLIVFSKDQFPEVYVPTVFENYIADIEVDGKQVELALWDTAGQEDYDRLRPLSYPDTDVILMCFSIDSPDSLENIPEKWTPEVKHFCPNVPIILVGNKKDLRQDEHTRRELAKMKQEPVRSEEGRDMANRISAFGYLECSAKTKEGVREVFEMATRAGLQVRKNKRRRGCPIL
UniProt P27773, residues 25-505: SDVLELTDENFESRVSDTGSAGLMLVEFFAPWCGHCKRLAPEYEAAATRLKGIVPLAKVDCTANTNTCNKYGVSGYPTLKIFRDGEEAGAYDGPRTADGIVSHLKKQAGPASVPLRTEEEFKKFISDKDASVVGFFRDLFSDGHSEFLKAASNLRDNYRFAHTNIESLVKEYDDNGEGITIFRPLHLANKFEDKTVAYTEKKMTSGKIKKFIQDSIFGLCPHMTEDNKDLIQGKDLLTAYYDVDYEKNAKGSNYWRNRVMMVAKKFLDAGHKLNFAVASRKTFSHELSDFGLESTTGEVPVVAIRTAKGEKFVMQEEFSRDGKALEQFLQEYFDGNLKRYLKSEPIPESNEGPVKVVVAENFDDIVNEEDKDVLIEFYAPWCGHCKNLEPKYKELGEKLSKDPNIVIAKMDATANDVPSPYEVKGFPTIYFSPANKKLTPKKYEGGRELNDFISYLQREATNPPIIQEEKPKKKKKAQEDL

Results are given in words; binding and its absence hold for the method and conditions named. In cells and extracts the contact can be indirect. Here binding means that the protein was enriched with, or labelled near, the bait; the list need not be complete. Sequences can lack the tags named with a protein.

T1: 3×FLAG–galectin-8 (stably expressed in RAW 264.7 cells) (mouse) (UniProt Q9JL15)
T1 sequence: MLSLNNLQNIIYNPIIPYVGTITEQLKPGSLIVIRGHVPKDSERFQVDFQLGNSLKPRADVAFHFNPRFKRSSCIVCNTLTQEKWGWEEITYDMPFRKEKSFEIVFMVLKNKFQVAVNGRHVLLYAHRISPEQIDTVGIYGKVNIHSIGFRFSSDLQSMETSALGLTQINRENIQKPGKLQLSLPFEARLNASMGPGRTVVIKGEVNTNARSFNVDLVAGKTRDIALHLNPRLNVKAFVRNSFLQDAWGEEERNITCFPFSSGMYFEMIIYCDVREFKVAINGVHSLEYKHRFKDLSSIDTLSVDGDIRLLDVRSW

B1: thioredoxin (protein, UniProt P10639 1-105)
chain: MVKLIESKEAFQEALAAAGDKLVVVDFSATWCGPCKMIKPFFHSLCDKYSNVVFLEVDVDDCQDVAADCEVKCMPTFQFYKKGQKVGEFSGANKEKLEASITEYA
B2: PRDX2 (protein, UniProt Q61171 1-198)
chain: MASGNAQIGKSAPDFTATAVVDGAFKEIKLSDYRGKYVVLFFYPLDFTFVCPTEIIAFSDHAEDFRKLGCEVLGVSVDSQFTHLAWINTPRKEGGLGPLNIPLLADVTKSLSQNYGVLKNDEGIAYRGLFIIDAKGVLRQITVNDLPVGRSVDEALRLVQAFQYTDEHGEVCPAGWKPGSDTIKPNVDDSKEYFSKHN
B3: 14-3-3-gamma/YWAHAG (protein, UniProt P61982 1-247)
chain: MVDREQLVQKARLAEQAERYDDMAAAMKNVTELNEPLSNEERNLLSVAYKNVVGARRSSWRVISSIEQKTSADGNEKKIEMVRAYREKIEKELEAVCQDVLSLLDNYLIKNCSETQYESKVFYLKMKGDYYRYLAEVATGEKRATVVESSEKAYSEAHEISKEHMQPTHPIRLGLALNYSVFYYEIQNAPEQACHLAKTAFDDAIAELDTLNEDSYKDSTLIMQLLRDNLTLWTSDQQDDDGGEGNN
B4: calnexin (protein, UniProt P35564 21-591)
chain: HDGHDDDAIDIEDDLDDVIEEVEDSKSKSDASTPPSPKVTYKAPVPTGEVYFADSFDRGSLSGWILSKAKKDDTDDEIAKYDGKWEVDEMKETKLPGDKGLVLMSRAKHHAISAKLNKPFLFDTKPLIVQYEVNFQNGIECGGAYVKLLSKTAELSLDQFHDKTPYTIMFGPDKCGEDYKLHFIFRHKNPKTGVYEEKHAKRPDADLKTYFTDKKTHLYTLILNPDNSFEILVDQSVVNSGNLLNDMTPPVNPSREIEDPEDRKPEDWDERPKIADPDAVKPDDWDEDAPSKIPDEEATKPEGWLDDEPEYIPDPDAEKPEDWDEDMDGEWEAPQIANPKCESAPGCGVWQRPMIDNPNYKGKWKPPMIDNPNYQGIWKPRKIPNPDFFEDLEPFKMTPFSAIGLELWSMTSDIFFDNFIISGDRRVVDDWANDGWGLKKAADGAAEPGVVLQMLEAAEERPWLWVVYILTVALPVFLVILFCCSGKKQSNAMEYKKTDAPQPDVKDEEGKEEEKNKRDEEEEEEKLEEKQKSDAEEDGVTGSQDEEDSKPKAEEDEILNRSPRNRKPRRE
B5: macrophage capping protein (protein, UniProt P24452 1-352)
chain: MYTPIPQSGSPFPASVQDPGLHIWRVEKLKPVPIARESHGIFFSGDSYLVLHNGPEEASHLHLWIGQQSSRDEQGACAVLAVHLNTLLGERPVQHREVQGNESDLFMSYFPRGLKYYREGGVESAFHKTTSGARGAAIRKLYQVKGKKNIRATERPLSWDSFNTGDCFILDLGQNIFAWCGGKSNILERNKARDLALAIRDSERQGKAQVEIITDGEEPAEMIQVLGPKPALKEGNPEEDITADQTRPNAQAAALYKVSDATGQMNLTKVADSSPFASELLIPDDCFVLDNGLCAQIYIWKGRKANEKERQAALQVADGFISRMRYSPNTQVEILPQGRESPIFKQFFKNWK
B6: cyclophilin C-associated protein (protein, UniProt Q07797 19-577)
chain: TEDGDMRLVNGASANEGRVEIFYRGRWGTVCDNLWNLLDAHVVCRALGYENATQALGRAAFGPGKGPIMLDEVECTGTESSLASCRSLGWMVSRCGHEKDAGVVCSNDTTGLHILDLSGELSDALGQIFDSQQGCDLFIQVTGQGYEDLSLCAHTLILRTNPEAQALWQVVGSSVIMRVDAECMPVVRDFLRYFYSRRIEVSMSSVKCLHKLASAYGATELQDYCGRLFATLLPQDPTFHTPLDLYAYARATGDSMLEDLCVQFLAWNFEPLTQSESWSAVPTTLIQALLPKSELAVSSELDLLKAVDQWSTETIASHEDIERLVEQVRFPMMLPQELFELQFNLSLYQDHQALFQRKTMQALEFHTVPVEVLAKYKGLNLTEDTYKPRLYTSSTWSSLVMASTWRAQRYEYNRYNQLYTYGYGSVARYNSYQSFQTPQHPSFLFKDKQISWSATYLPTMQSCWNYGFSCTSNELPVLGLTTSSYSNPTIGYENRVLILCGGYSVVDVTSFEGSKAPIPTALDTNSSKTPSLFPCASGAFSSFRVVIRPFYLTNSTDMV
B7: LAMP2 (protein, UniProt P17047 26-415)
chain: LIVNLTDSKGTCLYAEWEMNFTITYETTNQTNKTITIAVPDKATHDGSSCGDDRNSAKIMIQFGFAVSWAVNFTKEASHYSIHDIVLSYNTSDSTVFPGAVAKGVHTVKNPENFKVPLDVIFKCNSVLTYNLTPVVQKYWGIHLQAFVQNGTVSKNEQVCEEDQTPTTVAPIIHTTAPSTTTTLTPTSTPTPTPTPTPTVGNYSIRNGNTTCLLATMGLQLNITEEKVPFIFNINPATTNFTGSCQPQSAQLRLNNSQIKYLDFIFAVKNEKRFYLKEVNVYMYLANGSAFNISNKNLSFWDAPLGSSYMCNKEQVLSVSRAFQINTFNLKVQPFNVTKGQYSTAQDCSADEDNFLVPIAVGAALGGVLILVLLAYFIGLKRHHTGYEQF
B8: lysozyme C1 (protein, UniProt P17897 19-148)
chain: KVYNRCELARILKRNGMDGYRGVKLADWVCLAQHESNYNTRATNYNRGDRSTDYGIFQINSRYWCNDGKTPRSKNACGINCSALLQDDITAAIQCAKRVVRDPQGIRAWVAWRTQCQNRDLSQYIRNCGV
B9: PRDX1 (protein, UniProt P35700 1-199)
chain: MSSGNAKIGYPAPNFKATAVMPDGQFKDISLSEYKGKYVVFFFYPLDFTFVCPTEIIAFSDRADEFKKLNCQVIGASVDSHFCHLAWINTPKKQGGLGPMNIPLISDPKRTIAQDYGVLKADEGISFRGLFIIDDKGILRQITINDLPVGRSVDEIIRLVQAFQFTDKHGEVCPAGWKPGSDTIKPDVNKSKEYFSKQK
B10: LAMP1 (protein, UniProt P11438 25-406)
chain: LFEVKNNGTTCIMASFSASFLTTYETANGSQIVNISLPASAEVLKNGSSCGKENVSDPSLTITFGRGYLLTLNFTKNTTRYSVQHMYFTYNLSDTEHFPNAISKEIYTMDSTTDIKADINKAYRCVSDIRVYMKNVTVVLRDATIQAYLSSGNFSKEETHCTQDGPSPTTGPPSPSPPLVPTNPTVSKYNVTGNNGTCLLASMALQLNITYLKKDNKTVTRAFNISPNDTSSGSCGINLVTLKVENKNRALELQFGMNASSSLFFLQGVRLNMTLPDALVPTFSISNHSLKALQATVGNSYKCNTEEHIFVSKMLSLNVFSVQVQAFKVDSDRFGSVEECVQDGNNMLIPIAVGGALAGLVLIVLIAYLIGRKRSHAGYQTI
B11: PDIA6 (protein, UniProt Q922R8 20-440)
chain: LYSSSDDVIELTPSNFNREVIQSDGLWLVEFYAPWCGHCQRLTPEWKKAATALKDVVKVGAVNADKHQSLGGQYGVQGFPTIKIFGANKNKPEDYQGGRTGEAIVDAALSALRQLVKDRLGGRSGGYSSGKQGRGDSSSKKDVVELTDDTFDKNVLDSEDVWMVEFYAPWCGHCKNLEPEWAAAATEVKEQTKGKVKLAAVDATVNQVLASRYGIKGFPTIKIFQKGESPVDYDGGRTRSDIVSRALDLFSDNAPPPELLEIINEDIAKKTCEEHQLCVVAVLPHILDTGAAGRNSYLEVLLKLADKYKKKMWGWLWTEAGAQYELENALGIGGFGYPAMAAINARKMKFALLKGSFSEQGINEFLRELSFGRGSTAPVGGGSFPTITPREPWDGKDGELPVEDDIDLSDVELDDLEKDEL
B12: lysozyme M (protein, UniProt P08905 19-148)
chain: KVYERCEFARTLKRNGMAGYYGVSLADWVCLAQHESNYNTRATNYNRGDQSTDYGIFQINSRYWCNDGKTPRAVNACGINCSALLQDDITAAIQCAKRVVRDPQGIRAWVAWRAHCQNRDLSQYIRNCGV

The assay concerns the target T1, 3×FLAG–galectin-8 (stably expressed in RAW 264.7 cells) (mouse). Briefly: affinity purification with mass spectrometry; anti-FLAG IP of 3×FLAG–galectin-8 from RAW 264.7 cells infected with ΔactA L. monocytogenes (1 or 2 h postinfection); associated proteins identified by LC/MS.
On to HGMB1 (from UniProt P63158 1-215), for which the binding entry is given as “binds”.

With ANXA5 (from UniProt P48036 1-319), the binding entry is on record as “binds”.

As to “14-3-3-epsilon/YWAHAE (from UniProt P62259 1-255)”, the binding entry was “binds”.

Turning to “macrosialin/CD68 (from UniProt P31996 21-326)”, the binding result was “binds”.

As for PDIA4 (from UniProt P08003 21-638), the binding result is listed as “binds”.

For ANXA2 (from UniProt P07356 1-339), the binding result is on record as “binds”.

For the molecule gelsolin (from UniProt P13020 26-780), the binding result is “binds”.

Take HSP90B1 (from UniProt P08113 22-802): the binding result is given as “binds”.

Take PDIA1 (from UniProt P09103 20-509): the binding entry was “binds”.

Take “profilin (mouse (endogenous in RAW 264.7))”: the binding entry is reported as “binds”.

Regarding “cathepsin Z (from UniProt Q9WUU7 64-306)”, the binding result is given as “binds”.

Regarding Cdc42 (from UniProt P60766 1-191), the binding result is given as “binds”.

With Rab7 (mouse (endogenous in RAW 264.7)), the binding result is listed as “binds”.

Turning to talin-1 (from UniProt P26039 1-2541), the binding entry is given as “binds”.

For “syntenin-1/SDCBP (endogenous, RAW 264.7 cells) (from UniProt O08992 1-299)”, the binding entry is on record as “binds”.

Regarding “Rho GDI (mouse (endogenous in RAW 264.7))”, the binding entry was “binds”.

EFhd2 (from UniProt Q9D8Y0 1-240): the binding result is reported as “binds”.

With “Rab GDI [GDP dissociation inhibitor] (mouse (endogenous in RAW 264.7))”, the binding entry is “binds”.

RhoC (from UniProt Q62159 1-193): the binding entry is listed as “binds”.

Consider PDIA3 (from UniProt P27773 25-505), for which the binding result is “binds”.

On to B1, for which the binding entry is “binds”.

As to B2, the binding result is “binds”.

Turning to B3, the binding result was “binds”.

Turning to B4, the binding result is on record as “binds”.

Regarding B5, the binding entry is “binds”.

With B6, the binding entry is recorded as “binds”.

B7: the binding entry is reported as “binds”.

B8: the binding result is “binds”.

On to B9, for which the binding entry is on record as “binds”.

As for B10, the binding entry was “binds”.

Turning to B11, the binding result is listed as “binds”.

In the case of B12, the binding entry was “binds”.
